Measured data: PubChem BioAssay AID1259254 (NCATS, 2017)

- Screen: 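Genome-wide screen for genes that prevent DNA re-replication in cancer cells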 (primary screen)
- System: human HCT116 colorectal cancer cells
- Knock-down reagent: single siRNA against human genes
- Timing: 3 days
- Measured: 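Imaged Hoechst DNA stain sorts each cell into a cycle phase by DNA amount; per plate, G2 fraction set to 0% for non-targeting and 100% for GMNN siRNA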
- Reading the numbers: G2 robust z-score and G2 cells, % of GMNN control: higher = more G2 cells, more excess DNA replication; raw share of cells in G2: higher = larger share of cells with G2 DNA content
- Active means: 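Active siRNAs have a G2 robust z of 5 or more median absolute deviations over the median, which in these data means about 38% or higher of GMNN control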
Shown is an unselected part of about 59,000 reagents. In the full data, about 1,550 (2.6%) were called active. 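G2 share is only a proxy for re-replication; each gene was hit by three separate siRNAs, and active genes were retested.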 Raw values vary from plate to plate and are shown uncorrected. Unmarked entries are inactive. Not stated in the record: the amount of reagent.

Gene	PubChem SID	G2 robust z-score	G2 cells, % of GMNN control	raw share of cells in G2 (%)
FBXW12 (GeneID 285231)	SID160763538	2.16	18.2	10.3
FBXW12 (GeneID 285231)	SID160763539	-0.271	1.06	3.45
FBXW12 (GeneID 285231)	SID160763540	-0.0865	2.36	3.98
PLA2G2D (GeneID 26279)	SID160730928	1.59	14.2	8.63
PLA2G2D (GeneID 26279)	SID160737904	-1.39	-6.82	3.07
PLA2G2D (GeneID 26279)	SID160737905	4.66	35.7	16
LOC647115 (retired record) (GeneID 647115)	SID160734028	-0.811	-2.74	2.17
LOC647115 (retired record) (GeneID 647115)	SID160770139	3.91	30.5	15.3
LOC647115 (retired record) (GeneID 647115)	SID160770141	1.87	16.1	9.21
LOC642335 (retired record) (GeneID 642335)	SID160768576	0.141	3.96	5.15
LOC642335 (retired record) (GeneID 642335)	SID160768577	0.0857	3.57	4.77
LOC642335 (retired record) (GeneID 642335)	SID160768578	-0.331	0.637	3.34
ACTR6 (GeneID 64431)	SID160747791	3.55	27.9	14.4
ACTR6 (GeneID 64431)	SID160747792	2.95	23.7	15.5
ACTR6 (GeneID 64431)	SID160747793	0.0258	3.15	5.46
ZNF320 (GeneID 162967)	SID160759966	2.13	18	10
ZNF320 (GeneID 162967)	SID160759968	-0.553	-0.925	2.65
ZNF320 (GeneID 162967)	SID160759969	0.265	4.83	4.29
CLYBL (GeneID 171425)	SID160732634	1.41	12.9	6.84
CLYBL (GeneID 171425)	SID160760515	0.648	7.53	6.3
CLYBL (GeneID 171425)	SID160760516	0.511	6.56	5.16
MTOR (GeneID 2475)	SID160773206	-0.92	-3.51	4.45
MTOR (GeneID 2475)	SID160773295	-0.462	-0.286	5.31
MTOR (GeneID 2475)	SID160773386	-0.511	-0.625	3.8
ZNF714 (GeneID 148206)	SID160758657	3.78	29.5	13.3
ZNF714 (GeneID 148206)	SID160758658	0.691	7.83	5.88
ZNF714 (GeneID 148206)	SID160758660	-0.137	2	4.23
DIPK2B (GeneID 79742)	SID160726921	-0.859	-3.07	2.32
DIPK2B (GeneID 79742)	SID160734464	-0.253	1.19	3.57
DIPK2B (GeneID 79742)	SID160749336	2.91	23.4	14.2
DIPK2B (GeneID 79742)	SID160749337	-0.638	-1.52	3.64
DIPK2B (GeneID 79742)	SID160749338	0.173	4.19	3.52
DIPK2B (GeneID 79742)	SID160772390	-0.116	2.15	4.75
M1AP (GeneID 130951)	SID160757023	-0.142	1.97	4.92
M1AP (GeneID 130951)	SID160757024	1.99	17	8.49
M1AP (GeneID 130951)	SID160757025	-0.541	-0.837	2.28
CARD8 (GeneID 22900)	SID160733004	0.262	4.81	5.51
CARD8 (GeneID 22900)	SID160733012	-0.405	0.118	6.42
CARD8 (GeneID 22900)	SID160733022	-1.01	-4.17	2.76
CTDSPL2 (GeneID 51496)	SID160740885	-0.828	-2.86	2.58
CTDSPL2 (GeneID 51496)	SID160740886	1.49	13.5	9.94
CTDSPL2 (GeneID 51496)	SID160740887	0.263	4.82	4.78
VMA21 (GeneID 203547)	SID160761157	3.53	27.8	13.7
VMA21 (GeneID 203547)	SID160761158	0.712	7.98	5.86
VMA21 (GeneID 203547)	SID160761159	-0.422	0.000697	3.19
ESPN (GeneID 83715)	SID160751348	-0.879	-3.22	3.6
ESPN (GeneID 83715)	SID160751350	-0.801	-2.67	4.32
ESPN (GeneID 83715)	SID160751351	-0.841	-2.95	3.13
HSPB6 (GeneID 126393)	SID160756480	-0.512	-0.638	2.87
HSPB6 (GeneID 126393)	SID160756482	1.88	16.2	8.78
HSPB6 (GeneID 126393)	SID160756483	-0.605	-1.29	3.07
CFP (GeneID 5199)	SID160714137	-0.158	1.86	5.76
CFP (GeneID 5199)	SID160714138	-0.189	1.64	4.87
CFP (GeneID 5199)	SID160714139	-1.11	-4.88	1.59
GTF2H2C_2 (GeneID 730394)	SID160727467	-0.257	1.16	3.49
GTF2H2C_2 (GeneID 730394)	SID160728038	1.01	10.1	6.67
GTF2H2C_2 (GeneID 730394)	SID160728039	-0.798	-2.64	2.6
CARMN (GeneID 728264)	SID160771637	1.59	14.1	8.91
CARMN (GeneID 728264)	SID160771638	-0.528	-0.746	2.61
CARMN (GeneID 728264)	SID160771639	-0.666	-1.72	2.95
SPMAP2 (GeneID 51298)	SID160740535	-0.835	-2.91	2.56
SPMAP2 (GeneID 51298)	SID160740536	0.171	4.17	6.03
SPMAP2 (GeneID 51298)	SID160740537	4.34	33.5	14.3
TSC22D4 (GeneID 81628)	SID160724579	-0.431	-0.0627	3.61
TSC22D4 (GeneID 81628)	SID160731971	0.965	9.76	10.3
TSC22D4 (GeneID 81628)	SID160750929	0.195	4.34	4.32
HSD17B6 (GeneID 8630)	SID160720462	0.358	5.49	6.67
HSD17B6 (GeneID 8630)	SID160720463	5.24 (active)	39.8	19.2
HSD17B6 (GeneID 8630)	SID160732076	3.01	24.2	15.5

Part of the list above, reformatted.
Gene,PubChem SID,G2 robust z-score,"G2 cells, % of GMNN control",raw share of cells in G2 (%)
LOC647115 (retired record) (GeneID 647115),SID160734028,-0.811,-2.74,2.17
LOC647115 (retired record) (GeneID 647115),SID160770139,3.91,30.5,15.3
LOC647115 (retired record) (GeneID 647115),SID160770141,1.87,16.1,9.21
LOC642335 (retired record) (GeneID 642335),SID160768576,0.141,3.96,5.15
LOC642335 (retired record) (GeneID 642335),SID160768577,0.0857,3.57,4.77
LOC642335 (retired record) (GeneID 642335),SID160768578,-0.331,0.637,3.34
ACTR6 (GeneID 64431),SID160747791,3.55,27.9,14.4
ACTR6 (GeneID 64431),SID160747792,2.95,23.7,15.5
ACTR6 (GeneID 64431),SID160747793,0.0258,3.15,5.46
ZNF320 (GeneID 162967),SID160759966,2.13,18,10
